Test results published in article PMC10728895 (ACS Chemical Biology, 2023).

Test: general procedure: Fmoc solid-phase peptide synthesis; Fmoc-Lys(Boc)-Wang resin (0.64 mmol/g); DIC/Oxyma Pure
Conditions: whole synthesis, analytical HPLC, detection at 220 nm; LC-MS, scale of the general procedure 50 μmol

Substance	final HPLC purity [%]
Ac-WBRDEFAAIBRVHGNELRELADK-OH	98
Ac-WBNXEFAXIBAVHGRQLRRLARK-OH	94
FAM-WBXNEFXAIBAVHGRQLRRLARK-OH	97
Ac-WBRNEFAAIBRVHGNQLRELANK-OH	98
Ac-WBRNQFRAIBRVHGNQLRELANK-OH	99
FAM-WBRNQFAAIBRVHGNQLRELANK-OH	94
FAM-WBNNEFAAIBAVHGRQLRRLARK-OH	98
Ac-WBRDEFRAIBRVHGXELRXLADK-OH	99
Ac-WBDDEFARIBAVHGNELRELADK-OH	99
Ac-WBXNEFXAIBAVHGRQLRRLARK-OH	95
Ac-WBDDRFAAIBAVHGNELRELADK-OH	99
FAM-WBNXEFAXIBAVHGRQLRRLARK-OH	95
Ac-WBRXEFRXIBRVHGNELRELADK-OH	99
FAM-WBDNEFAAIBAVHGRQLRRLANK-OH	96
Ac-WBDDEFAAIBAVHGRELRELADK-OH	99
Ac-WBRNEFAAIBRVHGXQLRXLANK-OH	98
Ac-WBRXEFAXIBRVHGNELRELADK-OH	95
FAM-WBNNEFAXIBAXHGRQLRRLARK-OH	95
FAM-WBRDEFAAIBRVHGXELRXLADK-OH	93

Substance	final HPLC purity [%]
Ac-WBDNEFAAIBAVHGRQLRRLANK-OH	97
Ac-WBDDEFAAIBRVHGNELRELADK-OH	97
FAM-WBNNEFAAIBAVHGRQLRRLANK-OH	97
Ac-WBDDEFAAIBAVHGNELRELADK-OH	97
FAM-WBDNEFAAIBAVHGRQLRRLARK-OH	97
Ac-WBDREFAAIBAVHGNELRELADK-OH	99
Ac-WBRNQFRAIBRVHGXQLRXLANK-OH	99
FAM-WBRDEFRAIBRVHGNELRELADK-OH	97
Ac-WBRNEFRAIBRVHGXQLRXLANK-OH	98
Ac-WBRREFRRIBRVHGRELRELADK-OH	99
FAM-WBRNQFRAIBRVHGXQLRXLANK-OH	96
Ac-WBNNEFAAIBAVHGRQLRRLARK-OH	97
FAM-WBNNEFXAIBXVHGRQLRRLARK-OH	95
Ac-WBRDEFAAIBAVHGNELRELADK-OH	99
Ac-WBRDEFRAIBRVHGNELRELADK-OH	99
Ac-WBDNEFAAIBAVHGRQLRRLARK-OH	98
Ac-WBDDEFAAIBAVHGNELRELARK-OH	99
Ac-WBDDEFRAIBAVHGNELRELADK-OH	99
FAM-WBDDEFAAIBAVHGNELRELADK-OH	95

Substance	final HPLC purity [%]
Ac-WBRDEFAAIBRVHGXELRXLADK-OH	93
Ac-WBRREFRRIBRVHGNELRELADK-OH	98
Ac-WBNNEFAXIBAXHGRQLRRLARK-OH	98
Ac-WBDDEFAAIBARHGNELRELADK-OH	99
Ac-WBNNEFXAIBXVHGRQLRRLARK-OH	96
FAM-WBRNQFRAIBRVHGNQLRELANK-OH	99
FAM-WBRDEFRAIBRVHGXELRXLADK-OH	94
Ac-WBRNQFAAIBRVHGNQLRELANK-OH	99
Ac-WBRNQFAAIBRVHGXQLRXLANK-OH	99
Ac-WBDDEFAAIBAVHGNELRELRDK-OH	99
Ac-WBDDEFAAIBAVHGNELRRLADK-OH	99
FAM-WBRNQFAAIBRVHGXQLRXLANK-OH	96
Ac-WBDDEFAAIBAVHGNRLRELADK-OH	99
Ac-WBNNEFAAIBAVHGRQLRRLANK-OH	98
FAM-WBRDEFAAIBRVHGNELRELADK-OH	95
FAM-WBRXEFAXIBRVHGNELRELADK-OH	95
Ac-WBRNEFRAIBRVHGNQLRELANK-OH	98
FAM-WBRXEFRXIBRVHGNELRELADK-OH	94
